# Reference: PubChem BioAssay AID2685 (National Center for Advancing Translational Sciences (NCATS), 2010)
# The other results are listed elsewhere or left out. The main result of the screen is listed elsewhere. These columns were measured beside it and carry no call. Most of these compounds were active or inconclusive in the main read-out, so they are no random draw. Words in brackets tell the shape of the fitted curve; partial curves, single points and poor fits give uncertain potencies.
# Experiment: qHTS Assay for Lipid Storage Modulators in Drosophila S3 Cells;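 on cell number change: cells counted by Cell Tracker Red CMTPX staining in the red channel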
# Details: BODIPY lipid droplet fluorescence, 18-24 h; for cell number change: measured here: cell count max response, cells fed with added oleic acid
# How it was run: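 Drosophila S3 cells got compounds at several concentrations plus oleic acid (400 uM solution). Laser-scanning cytometry with 488 nm excitation read lipid droplets at 500-530 nm and cells at 575-640 nm. Percent activity was relative to 20 uM Triacsin C.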
# [1] = measured here: lipid fluorescence (Fed channel) AC50, cells fed with added oleic acid
# [2] = measured here: cell number channel AC50, cells fed with added oleic acid
smiles,measurement,setting,value
C=CCNC(=O)c1ccccc1NC(=O)c1ccc(Cl)c(S(=O)(=O)Nc2cc(C)ccc2C)c1,cell number change,,-9.76%
same,AC50,[1],"206 nM [falling, full curve, poor fit]"
CCc1ccc(C(=O)COC(=O)c2cc([N+](=O)[O-])ccc2NCCO)cc1,cell number change,,-31.8%
same,AC50,[2],"29100 nM [falling, single point]"
CCOC(=O)C1CCCN(c2c(NCCCN3CCCC(C)C3)c(=O)c2=O)C1 (stereo unspecified),cell number change,,-10.9%
Cc1ccc(-c2nn3c(C)nnc3c3ccccc23)cc1S(=O)(=O)N(C)CCO,cell number change,,-0.452%
same,AC50,[1],"517 nM [rising, full curve, poor fit]"
O=C(OCc1ccccc1Cl)C1CC(=O)N(Cc2ccco2)C1 (stereo unspecified),cell number change,,-9.8%
same,AC50,[1],"651 nM [falling, single point]"
Cc1ccc(SCC(=O)NC(=O)c2ccc(S(=O)(=O)N(C)C)cc2)cc1C,cell number change,,-22.3%
same,AC50,[1],"206 nM [falling, full curve, poor fit]"
Cc1ccc(CSCCNC(=O)c2ccc(N(C)S(=O)(=O)c3ccccc3)cc2)cc1,AC50,[2],"2060 nM [rising, partial curve, poor fit]"
O=C(c1cc2ccccc2o1)N1CCN(C/C=C/c2ccccc2)CC1,cell number change,,-10.9%
same,AC50,[1],"6510 nM [rising, single point]"
CN(C)S(=O)(=O)c1ccc(C(=O)OCn2nnc3ccccc3c2=O)cc1,cell number change,,-4.84%
same,AC50,[1],"16400 nM [falling, partial curve]"
Cc1ccc(N(CC(=O)NCc2ccccc2)S(=O)(=O)c2c(C)noc2C)cc1,cell number change,,23.8%
same,AC50,[1],"6510 nM [falling, single point]"
O=C(CSc1nnnn1C1CCCC1)Nc1ccccc1N1CCOCC1,cell number change,,15.3%
same,AC50,[2],"6510 nM [falling, single point]"
same,AC50,[1],"6510 nM [falling, single point]"
Cc1ccc(C)n1-c1ccc(C(=O)NC2CCN(Cc3ccccc3)CC2)cc1,cell number change,,-11%
same,AC50,[1],"1030 nM [falling, full curve, poor fit]"
COc1ccc2ccc(OCC(=O)Nc3cc(C)on3)cc2c1,cell number change,,13%
same,AC50,[1],"1160 nM [rising, full curve, poor fit]"
Cc1cccnc1NC(=O)c1ccc(OCc2c(C)noc2C)cc1,cell number change,,22%
CC(C)n1nc(C(=O)Nc2nc3ccc(S(C)(=O)=O)cc3s2)c2ccccc2c1=O,cell number change,,9.57%
CN(c1ccc(C(=O)NCc2cccs2)cc1)S(=O)(=O)c1ccccc1,cell number change,,6.92%
CCN(CC(=O)Nc1ccc(OC)cc1)C(=O)Cc1cccs1,cell number change,,-0.81%
O=CN1CCN(C(=O)c2ccccc2Cl)CC1,AC50,[1],"20600 nM [falling, partial curve]"
O=c1oc2ccccc2n1CCc1ccccc1,cell number change,,47.9%
same,AC50,[2],"11600 nM [rising, partial curve, poor fit]"
CCCC[C@H]1COCCS(=O)(=O)N1Cc1ccccc1F,cell number change,,-0.299%
COCCCN(C(=O)c1ccco1)c1nc(-c2cc(OC)ccc2OC)cs1,cell number change,,-31%
same,AC50,[2],"1640 nM [falling, partial curve, poor fit]"
same,AC50,[1],"6510 nM [falling, single point]"
CC(=O)c1ccc(N2CCN(C(=O)c3ccc(OCc4c(C)noc4C)cc3)CC2)cc1,cell number change,,-21.2%
OC(Cn1cncn1)c1ccc(Cl)cc1 (stereo unspecified),cell number change,,8.65%
COC(=O)c1c(C)oc2ccc(NS(=O)(=O)c3cccs3)cc12,AC50,[2],"2310 nM [rising, partial curve]"
Cc1ccc(OCC(=O)Oc2c(C)cccc2C)cc1,cell number change,,24.9%
same,AC50,[1],"29100 nM [rising, single point]"
Cc1cccn2c(=O)c3cc(C#N)c(=N)n(CCN4CCOCC4)c3nc12,cell number change,,-2.56%
same,AC50,[1],"517 nM [rising, full curve]"
CC(OC(=O)CNS(=O)(=O)c1ccc2ccccc2c1)C(=O)N(C)c1ccccc1 (stereo unspecified),cell number change,,-15.3%
O=C(CCNC(=O)c1ccc([N+](=O)[O-])cc1)NC1CCCCCC1,cell number change,,-2.94%
same,AC50,[2],"92 nM [falling, full curve, poor fit]"
same,AC50,[1],"92 nM [falling, full curve, poor fit]"
CC(C)c1ccc(/C=C/c2[nH]c(=O)[nH]c(=O)c2[N+](=O)[O-])cc1,cell number change,,15.5%
same,AC50,[1],"1840 nM [falling, partial curve]"
CNC(=O)c1ccsc1NC(=O)CCS(=O)(=O)c1ccc(F)cc1,cell number change,,26.6%
same,AC50,[2],"25.9 nM [rising, full curve, poor fit]"
same,AC50,[1],"3660 nM [rising, partial curve, poor fit]"
O=C(Nc1ccc(-c2cc3ccccc3oc2=O)c(Cl)c1)c1cccnc1,cell number change,,-35.4%
same,AC50,[2],"23100 nM [falling, single point]"
CC(C)(C)NC(=O)N1CCN(c2nc3ccc(Cl)cc3s2)CC1,cell number change,,-48.7%
same,AC50,[2],"20600 nM [falling, single point]"
same,AC50,[1],"23100 nM [falling, single point]"
COc1ccc(-n2c(C)nc3c(cnn3-c3ccc(C)c(C)c3)c2=O)cc1,cell number change,,13.9%
same,AC50,[2],"4.11 nM [rising, full curve, poor fit]"
CC(=O)Oc1c(C)c(=O)n(C)c2ccccc12,cell number change,,2.2%
same,AC50,[1],"116 nM [falling, full curve, poor fit]"
Cc1ccc2nc(NC3=NCN(C4CCCCC4)CN3)nc(C)c2c1,cell number change,,-9.05%
same,AC50,[1],"3660 nM [falling, partial curve]"
COc1cc(NC(=O)c2cc(OC)c(OC)c(OC)c2)c(OC)cc1NC(=O)CN1CCCCC1,AC50,[1],"116 nM [rising, full curve, poor fit]"
CNCc1ccccc1Sc1ccc(OC)cc1,cell number change,,-15.4%
same,AC50,[1],"1840 nM [falling, partial curve, poor fit]"
Cc1nn2c(COc3ccc(NC(=O)c4ccccc4Cl)cc3)nnc2c2ccccc12,cell number change,,2.09%
same,AC50,[1],"10300 nM [rising, partial curve, poor fit]"
CCOc1ccccc1NC(=O)C1CCCN1S(=O)(=O)c1ccccc1C(F)(F)F (stereo unspecified),cell number change,,-25.7%
same,AC50,[2],"1640 nM [rising, partial curve]"
same,AC50,[1],"2060 nM [rising, partial curve]"

# For reference, part of the list above:
smiles,measurement,setting,value
O=C(CCNC(=O)c1ccc([N+](=O)[O-])cc1)NC1CCCCCC1,AC50,[2],"92 nM [falling, full curve, poor fit]"
same,AC50,[1],"92 nM [falling, full curve, poor fit]"
CC(C)c1ccc(/C=C/c2[nH]c(=O)[nH]c(=O)c2[N+](=O)[O-])cc1,cell number change,,15.5%
